{"sequences": {"note": "Protein sequences, listed by entry. Tags and fused reporters are not part of them.", "UniProt P05198": "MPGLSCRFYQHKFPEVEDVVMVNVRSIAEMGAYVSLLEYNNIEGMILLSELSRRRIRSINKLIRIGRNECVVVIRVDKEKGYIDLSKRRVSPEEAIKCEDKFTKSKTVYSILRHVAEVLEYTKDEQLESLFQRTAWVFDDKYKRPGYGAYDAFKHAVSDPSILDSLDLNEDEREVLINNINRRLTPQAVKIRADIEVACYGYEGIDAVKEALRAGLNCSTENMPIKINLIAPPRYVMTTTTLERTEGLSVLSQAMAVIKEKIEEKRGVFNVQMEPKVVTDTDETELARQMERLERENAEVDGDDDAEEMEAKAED", "UniProt P19525": "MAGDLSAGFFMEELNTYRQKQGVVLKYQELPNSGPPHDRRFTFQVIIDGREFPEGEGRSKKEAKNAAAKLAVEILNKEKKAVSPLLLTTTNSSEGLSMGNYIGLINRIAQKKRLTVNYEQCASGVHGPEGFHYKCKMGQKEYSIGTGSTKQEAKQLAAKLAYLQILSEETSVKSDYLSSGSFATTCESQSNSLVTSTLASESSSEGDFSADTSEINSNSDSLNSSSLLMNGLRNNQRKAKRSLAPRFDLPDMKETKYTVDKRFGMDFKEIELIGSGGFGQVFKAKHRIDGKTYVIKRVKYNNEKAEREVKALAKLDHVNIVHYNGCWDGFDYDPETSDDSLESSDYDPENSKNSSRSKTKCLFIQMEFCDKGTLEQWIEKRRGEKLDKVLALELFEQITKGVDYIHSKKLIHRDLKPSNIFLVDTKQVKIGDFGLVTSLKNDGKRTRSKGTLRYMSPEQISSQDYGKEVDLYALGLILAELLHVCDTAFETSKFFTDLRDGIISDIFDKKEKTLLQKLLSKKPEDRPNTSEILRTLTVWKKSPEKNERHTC", "UniProt P19474": "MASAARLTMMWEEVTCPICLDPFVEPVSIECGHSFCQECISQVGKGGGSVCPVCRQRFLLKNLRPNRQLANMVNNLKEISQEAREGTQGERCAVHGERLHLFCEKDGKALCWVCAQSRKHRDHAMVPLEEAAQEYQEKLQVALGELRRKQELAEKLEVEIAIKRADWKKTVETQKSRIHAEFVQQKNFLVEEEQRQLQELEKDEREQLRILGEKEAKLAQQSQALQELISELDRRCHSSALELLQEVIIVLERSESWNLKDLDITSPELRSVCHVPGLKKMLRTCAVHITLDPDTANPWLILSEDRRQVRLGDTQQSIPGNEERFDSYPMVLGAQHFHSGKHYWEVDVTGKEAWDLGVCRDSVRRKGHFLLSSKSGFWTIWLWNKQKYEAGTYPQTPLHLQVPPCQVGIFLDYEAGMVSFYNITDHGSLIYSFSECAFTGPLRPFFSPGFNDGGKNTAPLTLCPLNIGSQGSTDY", "UniProt P62136": "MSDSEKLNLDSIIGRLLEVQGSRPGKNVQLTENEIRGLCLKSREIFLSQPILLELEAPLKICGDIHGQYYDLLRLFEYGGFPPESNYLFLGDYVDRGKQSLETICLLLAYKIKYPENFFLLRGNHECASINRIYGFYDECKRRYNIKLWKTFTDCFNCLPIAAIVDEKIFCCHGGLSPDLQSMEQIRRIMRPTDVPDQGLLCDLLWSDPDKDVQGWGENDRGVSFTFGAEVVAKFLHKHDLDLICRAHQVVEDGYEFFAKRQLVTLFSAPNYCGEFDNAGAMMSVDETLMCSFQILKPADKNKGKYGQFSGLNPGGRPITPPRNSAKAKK"}, "source": "paper doi:10.1101/2022.06.07.495079", "assay_in_all_cases": "co-IP", "key": {"eIF2α (pcDNA3.1a-eIF2α)": {"biological_target": "eIF2α (pcDNA3.1a-eIF2α) (UniProt P05198)"}, "[1]": {"biological_target": "PKR, transfected in HEK293T (Fig 4C; plasmid not named) (human (cDNA from HLCZ01 hepatoma cells)) (UniProt P19525)"}, "[2]": {"biological_target": "TRIM21, transfected in HEK293T (Fig 4C; plasmid not named) (human (cDNA from HLCZ01 hepatoma cells)) (UniProt P19474)"}, "[3]": {"biological_target": "Flag-tagged PKR (p3xFlag-CMV-PKR) (human (cDNA from HLCZ01 hepatoma cells)) (UniProt P19525)"}, "[4]": {"biological_target": "endogenous PKR (A549 cells) (human (endogenous in A549)) (UniProt P19525)"}, "[5]": {"biological_target": "endogenous TRIM21 (A549 cells) (human (endogenous in A549)) (UniProt P19474)"}}, "note": "Results are given in words; binding and its absence hold for the method and conditions named. Binding seen in cells or lysates may run through a third protein. Some binding calls cover weakened binding; strength is not graded here."}
{"substance": "Flag-tagged TRIM21 (p3xFlag-CMV-TRIM21) (from UniProt P19474 1-475)", "values": [{"measurement": "binding", "setting": "eIF2α (pcDNA3.1a-eIF2α)", "result": "no binding"}]}
{"substance": "PP1α, transfected in HEK293T (Fig 4C; plasmid not named) (from UniProt P62136 1-330) (enzyme)", "values": [{"measurement": "binding", "setting": "[1]", "result": "binds"}, {"measurement": "binding", "setting": "[2]", "result": "binds"}]}
{"substance": "V5-tagged TRIM21 (pcDNA3.1a-TRIM21) (from UniProt P19474 1-475)", "values": [{"measurement": "binding", "setting": "[3]", "result": "binds"}]}
{"substance": "endogenous PP1α (A549 cells) (from UniProt P62136 1-330) (enzyme)", "values": [{"measurement": "binding", "setting": "[4]", "result": "binds"}, {"measurement": "binding", "setting": "[5]", "result": "binds"}]}
{"substance": "endogenous TRIM21 (A549 cells) (from UniProt P19474 1-475)", "values": [{"measurement": "binding", "setting": "[4]", "result": "binds"}]}
